Literature values as cited in paper PMC11674187, “Inhibitory Effects of Cenobamate on Multiple Human Cardiac Ion Channels and Possible Arrhythmogenic Consequences” (Biomolecules, 2024).

Amino acid sequences for entries named in this document (tags omitted).
UniProt Q14524, whole entry: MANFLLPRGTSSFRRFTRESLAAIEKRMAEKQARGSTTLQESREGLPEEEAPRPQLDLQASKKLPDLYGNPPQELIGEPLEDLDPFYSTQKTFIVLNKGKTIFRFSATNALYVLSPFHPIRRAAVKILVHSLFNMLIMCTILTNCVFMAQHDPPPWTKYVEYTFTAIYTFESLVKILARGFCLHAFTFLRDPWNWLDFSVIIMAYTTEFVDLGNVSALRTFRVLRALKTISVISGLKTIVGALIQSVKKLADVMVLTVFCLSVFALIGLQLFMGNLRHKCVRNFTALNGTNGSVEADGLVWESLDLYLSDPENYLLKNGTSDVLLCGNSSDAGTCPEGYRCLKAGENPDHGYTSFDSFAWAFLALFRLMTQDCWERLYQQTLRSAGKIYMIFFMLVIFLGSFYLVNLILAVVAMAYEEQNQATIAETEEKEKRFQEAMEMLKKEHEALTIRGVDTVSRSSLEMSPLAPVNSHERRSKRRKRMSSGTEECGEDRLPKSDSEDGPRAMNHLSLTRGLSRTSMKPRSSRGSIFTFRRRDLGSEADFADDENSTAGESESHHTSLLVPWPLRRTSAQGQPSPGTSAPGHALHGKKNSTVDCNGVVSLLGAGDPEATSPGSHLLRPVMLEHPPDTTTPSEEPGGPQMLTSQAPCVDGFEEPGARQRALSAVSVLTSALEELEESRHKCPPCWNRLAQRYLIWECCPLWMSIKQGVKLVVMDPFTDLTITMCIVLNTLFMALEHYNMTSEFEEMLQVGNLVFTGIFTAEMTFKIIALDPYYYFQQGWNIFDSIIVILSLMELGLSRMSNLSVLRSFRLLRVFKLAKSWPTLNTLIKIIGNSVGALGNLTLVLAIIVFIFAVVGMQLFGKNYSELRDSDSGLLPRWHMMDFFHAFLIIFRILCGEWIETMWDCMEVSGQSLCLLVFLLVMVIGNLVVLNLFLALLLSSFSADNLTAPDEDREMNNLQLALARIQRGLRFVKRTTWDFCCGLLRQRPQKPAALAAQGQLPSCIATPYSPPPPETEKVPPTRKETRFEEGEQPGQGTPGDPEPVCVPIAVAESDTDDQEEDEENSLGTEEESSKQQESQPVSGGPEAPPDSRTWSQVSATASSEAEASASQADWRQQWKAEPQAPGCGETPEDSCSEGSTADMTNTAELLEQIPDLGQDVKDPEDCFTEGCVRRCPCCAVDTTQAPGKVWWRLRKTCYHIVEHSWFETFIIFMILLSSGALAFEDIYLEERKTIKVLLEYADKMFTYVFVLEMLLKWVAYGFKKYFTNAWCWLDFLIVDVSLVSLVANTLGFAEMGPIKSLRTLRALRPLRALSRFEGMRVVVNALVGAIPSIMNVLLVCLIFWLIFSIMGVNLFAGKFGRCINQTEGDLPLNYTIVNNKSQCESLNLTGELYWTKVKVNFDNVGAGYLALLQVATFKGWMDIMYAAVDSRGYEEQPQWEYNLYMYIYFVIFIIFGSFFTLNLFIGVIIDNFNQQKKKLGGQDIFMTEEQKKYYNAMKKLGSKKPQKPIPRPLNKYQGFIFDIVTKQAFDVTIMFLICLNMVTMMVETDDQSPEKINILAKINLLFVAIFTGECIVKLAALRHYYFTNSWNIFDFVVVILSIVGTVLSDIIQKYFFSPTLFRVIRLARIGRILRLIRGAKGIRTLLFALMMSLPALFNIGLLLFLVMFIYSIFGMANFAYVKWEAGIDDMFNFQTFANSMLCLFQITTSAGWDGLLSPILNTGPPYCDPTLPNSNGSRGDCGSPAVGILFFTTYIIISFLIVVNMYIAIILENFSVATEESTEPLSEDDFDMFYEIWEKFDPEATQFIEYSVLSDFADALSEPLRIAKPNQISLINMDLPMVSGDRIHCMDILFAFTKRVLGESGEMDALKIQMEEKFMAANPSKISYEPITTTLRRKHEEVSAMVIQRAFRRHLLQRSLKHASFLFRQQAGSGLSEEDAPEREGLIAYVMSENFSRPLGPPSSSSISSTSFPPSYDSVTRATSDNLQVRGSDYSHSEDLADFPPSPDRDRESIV

Target: Nav1.5 (Homo sapiens, UniProt Q14524)
Details: lidocaine-Nav1.5; ref [17] Cardona K et al., 2010; cited from earlier work

CCN(CC)CC(=O)Nc1c(C)cccc1C [lidocaine]
kib: 4.9984e+06 M⁻¹ s⁻¹
kib^−1: 0.0384 ms^−1
kob: 5.173e+06 M⁻¹ s⁻¹
kob^−1: 0.0128 ms^−1
